Data set [1] is described as follows: Franz diffusion cell in vitro permeability, hybrid IPM-cellulose membrane. Particulars: pH 7.4. An excerpt: (§1) There are many membranes available on the market that are grouped as cellulosic and polymeric. Taking into account those that are more convenient and economical, two synthetic membranes and their combinations were used. Synthetic PVDF (polyvinylidene difluoride) and cellulose acetate (Table S2) membranes were pre-treated according to the supplier’s instructions. Cellulose membranes were further treated to acquire their lipophilic properties. Thus, they were placed on a flat glass surface and completely coated with IPM (isopropyl myristate) solution. The cellulose membrane was allowed to incubate in the IPM solution for 30 min. […]
(§2) The in vitro permeability profile of each compound was evaluated using the Franz diffusion cell setup (PermeGear, Hellertown, PA, USA). […]
(§3) At specified intervals (t = 2, 3, 4, 6, and 8 h), 0.5 mL of the samples was taken from the receptor compartment and replaced with an equal volume of freshly prewarmed receptor medium. The concentration of each API was quantified using the appropriate HPLC method (Section 4.1) without sample pretreatment. […] Each sample was analyzed in triplicate, and its cumulative release over time was plotted (Figure 2). The steady-state flux (Jss) was determined by plotting the permeation of the API per unit area (μg/cm^2) against time (h) and calculating the slope of the linear portion of the resulting line. […]

A short description of data set [2]: Retention on reversed-phase C4 HPLC column as indication of tissue penetration. It is filed as physicochemical. To be noted: ACE C4 150 × 4.6 mm, MeOH-H2O 10:90, 0.5 mL/min, 40 °C. The procedure:
Under the given conditions, it was assumed that the stationary phase simulates the tissue while the aqueous mobile phase represents the surrounding space. […] However, it should be clarified that under the present conditions, it was not possible to conduct a global assessment of the phenomenon because not all of the studied substances penetrated the tissue. However, this procedure could be used as an initial indication for the behaviors of potential drug candidates. […] The analysis was carried out under isocratic conditions with a flow rate of 0.5 mL/min and a mobile phase consisting of MeOH-H2O at 10:90 (v/v).

Data set [3] is described as follows: Franz diffusion cell in vitro permeability, PVDF membrane. To be noted: pH 7.4.
Source text: as §1, §2, §3

The nature of data set [4]: Franz diffusion cell in vitro permeability, hybrid PVDF-cellulose membrane. Particulars: pH 7.4.
Source text: as §1, §2, §3

Another data set can be described thus: in vitro. Particulars: cow. The protocol: Ex vivo experiments were conducted on cow vaginal mucosa sourced from a local slaughterhouse. Tissues with an exposure area of 0.19 cm^2 were placed in a Franz diffusion cell with the epithelial mucosa side facing the donor compartment. In the donor compartment, 200 μL of API’s solution in VFS (pH 4.5) was added (37 °C ± 0.2 °C), while the acceptor was filled with 5 mL of PBS at pH 7.4 (constant stirring at 100 rpm).
Samples were centrifuged at 2000× g for 10 min, and supernatants were analyzed using HPLC as described in Section 4.1.
The procedure for extracting the drug from the tissue was as follows: after the experiment was completed, each tissue was carefully removed from the Franz cell and immersed in 5 mL of methanol. It was then sonicated for 30 min, followed by 10 min of vertexing, another 30 min in the sonicator, and 10 min of vertexing. Finally, the samples were centrifuged for 20 min at 5000× g, and the supernatant was collected for analysis.

The source of these data is paper PMC11123929, “A Comparative Study and Prediction of the Ex Vivo Permeation of Six Vaginally Administered Drugs across Five Artificial Membranes and Vaginal Tissue” (Molecules, 2024).

Structures are written as SMILES.

For the compound `CCN(CC)CC(=O)Nc1c(C)cccc1C` [LIDO, lidocaine], the Papp at 8 h in data set [1] is 3.33 ×10⁻⁶ cm/s; in data set [3] it was 1.39 ×10⁻⁶ cm/s; in data set [4], 3.33 ×10⁻⁶ cm/s. The “Retention time (tr) in column C4” value in data set [2] is on record as 5.94 min. The Papp at 8 h, 10 mg/mL in the data set “in vitro” is 11.7 ×10⁻⁶ cm/s.
